PubChem BioAssay AID743454 | Peter MacCallum Cancer Centre – 2014

Aim: 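Knock-downs lowering viability or raising caspase 3/7 activity in vorinostat-treated resistant cells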 (primary screen)
Cells: human HCT116-VR colon cancer cells, selected for vorinostat resistance
Reagents: siRNA pool against human genes, 40 nM siRNA pool
Time to read-out: vorinostat for 24 h, read-out about 72 h after transfection
Treatment: vorinostat at 2.5 µM final
Detection: 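Two measures, CellTiter-Fluor viability and luminescent caspase 3/7 activity, each as fold change against same-plate mock wells, mean of duplicates, then screen-wide robust z-score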
Direction: viability robust z-score: higher = more viable cells than screen typical; caspase robust z-score: higher = more caspase 3/7 activity than screen typical
Call rule: 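Hits are knock-downs in viability class RV1/RV2 or caspase class CA1/CA2, excluding ones that killed cells in the no-drug cell-count arm; hits then retested with single siRNAs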
In all, the deposit lists about 18,000 reagents; shown is a random part of them. Of all reagents, 450 (2.5%) were called active. 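Single biological run; no consistent viability z cut-off exists, so the class columns, not z-scores, define the calls.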 No sequences are given here.

gene | viability hit class | caspase hit class | viability robust z-score | caspase robust z-score | activity call
PRSS37 | no change | no change | 1.12 | 4.48 | inactive
PCDHB3 | no change | no change | -0.14 | 0.01 | inactive
EXT1 | no change | no change | 0.76 | -0.17 | inactive
OR56A3 | no change | no change | -1.62 | -0.21 | inactive
PF4 | no change | no change | -1.42 | -0.62 | inactive
LRRC8E | no change | no change | 0.36 | -0.5 | inactive
RPL18P4 | no change | no change | -1.7 | -1.12 | inactive
KRT82 | no change | no change | 0.08 | 1.06 | inactive
AGO2 | no change | no change | 0.49 | -0.8 | inactive
DNAL1 | no change | no change | 0.84 | 1.17 | inactive
MUCL3 | no change | no change | 0.3 | 0.39 | inactive
PKHD1 | no change | no change | 0.08 | -0.26 | inactive
NSF | no change | CA1 (caspase activation) | -0.44 | 9.07 | active
DCTN1 | no change | no change | 0.64 | -0.53 | inactive
IL15RA | no change | no change | -0.74 | 4.95 | inactive
SLC25A48 | no change | no change | 0.12 | -0.58 | inactive
SLC12A4 | no change | no change | 1.36 | 0.74 | inactive
NENF | no change | no change | -0.28 | 0.68 | inactive
SIGLEC12 | no change | no change | 1.02 | 0.34 | inactive
CARS2 | no change | no change | -0.52 | -0.59 | inactive
GNAS | no change | no change | -1.29 | 1.9 | inactive
PBX3 | no change | no change | 1.5 | -0.44 | inactive
TFB1M | no change | no change | -0.12 | 0.08 | inactive

Records listed so far whose target name starts with N or n:
gene | viability hit class | caspase hit class | viability robust z-score | caspase robust z-score | activity call
NSF | no change | CA1 (caspase activation) | -0.44 | 9.07 | active
NENF | no change | no change | -0.28 | 0.68 | inactive
